Data source: PubChem BioAssay AID504784 (Drosophila RNAi Screening Center, 2011)

Aim: 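Search for regulators of lipid droplet storage in oleate-fed fly cells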 (primary screen)
Cell system: Drosophila Kc167 embryonic cells
Knock-down reagent: long dsRNA against Drosophila genes, about 250 ng dsRNA per well
Timing: 4 days
Conditions: cells fed 400 µM oleic acid bound to BSA
Measured: 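Cells imaged and segmented; ratio of lipid droplet area to nuclear area, log-transformed, then normalised as a B-score over the screen; higher means more stored lipid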
Direction: droplet/nuclear area B-score: higher = more stored lipid (overstorage)
The screen tested about 17,000 reagents; this is an unselected part of those with a known target gene and a result. 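Each column is one replicate's B-score; the combined score over replicates was not deposited, so single values may mislead.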 A plus sign joins genes that one reagent is predicted to hit. Not all columns of the deposit are shown. No sequences are given here.

no.	Target gene	DRSC id	droplet/nuclear area B-score, replicate 1	droplet/nuclear area B-score, replicate 2
1	CG7484	DRSC10853	0.479	2.29
2	CAH3 (Carbonic anhydrase 3)	DRSC17776	-0.305	-0.425
3	dpr12 (defective proboscis extension response 12)	DRSC04863	0.561	0.786
4	dpr12 (defective proboscis extension response 12)	DRSC04892	-1.27	-0.223
5	stac (staccato)	DRSC13693	-0.744	-0.659
6	stac (staccato)	DRSC14392	0.24	0.00756
7	stac (staccato)	DRSC22197	-0.621	0.175
8	CG10588	DRSC11628	-0.683	-1.78
9	CCT6 (Chaperonin containing TCP1 subunit 6)	DRSC20095	0.9	-1.57
10	Vps37B (Vacuolar protein sorting 37B)	DRSC12165	2.31	-0.371
11	CG11248	DRSC11644	1.33	0.533
12	Mst57Dc (Male-specific transcript 57Dc)	DRSC16745	2.21	1.32
13	CG5280	DRSC10498	-0.8	1.6
14	CG5280	DRSC22835	2.16	0.299
15	CG17508	DRSC07771	-0.949	-0.258
16	CG11089 + CG31381	DRSC13690	-0.819	0.746
17	CG11089 + CG31381	DRSC14290	0.0428	
18	vsg (visgun)	DRSC10219	0.545	-0.143
19	CG6567 + CG4565	DRSC15599	0.948	-0.903
20	Prp40 (pre-mRNA processing factor 40)	DRSC00612	-0.667	-2.6
21	CG30288	DRSC22005	-0.259	-0.0467
22	side-IV + CG17025 (retired record)	DRSC15168	-1.42	-1.78
23	CG8925	DRSC16455	0.273	0.659
24	CG8925	DRSC16456	1.8	0.186
25	CG8925	DRSC16457	0.936	0.386
26	CG44433	DRSC06517	0.685	0.962
27	CG44433	DRSC06518	-0.638	0.996
28	CG6793	DRSC10714	-0.544	0.153
29	CG8997	DRSC01900	0.00197	3.94
30	CG12883	DRSC14570	-1.02	-0.246
31	CG11145	DRSC06049	0.413	0.805
32	CG10337	DRSC02038	0.137	-0.141
33	CG15254	DRSC01870	1.22	1.41
34	CG15254	DRSC21765	2.17	-0.00581
35	CG11811	DRSC09862	-0.401	-0.119
36	E5	DRSC13000	-0.56	-1.35
37	E5	DRSC16585	0.0472	2.11
38	E5	DRSC23157	-1.93	-0.699
39	CG1552	DRSC19665	-2.98	-0.865
40	ImpL1 (Ecdysone-inducible gene L1)	DRSC11197	-1.17	
41	CG44325	DRSC18423	-1.57	0.538
42	dgt1 (dim gamma-tubulin 1)	DRSC15301	0.0708	0.688
43	stck (steamer duck)	DRSC17070	-0.356	-0.663
44	CG10209	DRSC05980	-0.584	0.101
45	CG11929	DRSC00339	-1	-0.0116
46	CG18048	DRSC12573	-0.459	-0.655
47	Cdk1 (Cyclin-dependent kinase 1)	DRSC03504	-1.62	0.138
48	Shc (SHC-adaptor protein)	DRSC11284	-0.00404	0.489
49	Daxx (Daxx-like protein)	DRSC03255	1.17	0.625
50	Srp14 (Signal recognition particle 14)	DRSC15797	-0.00677	-0.317
51	Npc2c (Niemann-Pick type C-2c)	DRSC15523	-0.0719	-0.899
52	Os-C	DRSC16778	-1.09	-0.367
53	CR14117 (pseudo)	DRSC10121	-0.425	-0.0213
54	CG9356	DRSC16476	0.275	4.56
55	CG5466	DRSC15808	0.118	-1.43
56	CG5466	DRSC23002	1.06	1.05
